The supplement of paper PMC7666118
Some of the results follow.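 How the source made its calls: active = dose-dependent thermal stabilisation significant by F-test of dose-response against flat model at 10% FDR; inactive = not significant.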

Sequences of proteins named here, by UniProt entry; tags and fusion partners are left off. A change or cut given only in a name is not applied to a line headed by its entry.
UniProt Q15208: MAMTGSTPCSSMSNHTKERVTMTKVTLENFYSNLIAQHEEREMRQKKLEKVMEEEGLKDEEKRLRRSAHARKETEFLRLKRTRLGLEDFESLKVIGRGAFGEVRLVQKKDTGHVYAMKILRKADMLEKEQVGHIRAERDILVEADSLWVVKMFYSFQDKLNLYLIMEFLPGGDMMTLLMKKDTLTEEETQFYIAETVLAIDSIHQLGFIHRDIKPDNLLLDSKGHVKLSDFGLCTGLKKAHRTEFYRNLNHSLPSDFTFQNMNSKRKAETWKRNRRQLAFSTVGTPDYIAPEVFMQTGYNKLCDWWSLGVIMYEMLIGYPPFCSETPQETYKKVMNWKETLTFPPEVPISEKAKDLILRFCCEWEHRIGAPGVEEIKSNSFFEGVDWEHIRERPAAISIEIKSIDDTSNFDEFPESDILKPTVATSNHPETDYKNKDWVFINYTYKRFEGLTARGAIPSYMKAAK
UniProt O15020, whole entry: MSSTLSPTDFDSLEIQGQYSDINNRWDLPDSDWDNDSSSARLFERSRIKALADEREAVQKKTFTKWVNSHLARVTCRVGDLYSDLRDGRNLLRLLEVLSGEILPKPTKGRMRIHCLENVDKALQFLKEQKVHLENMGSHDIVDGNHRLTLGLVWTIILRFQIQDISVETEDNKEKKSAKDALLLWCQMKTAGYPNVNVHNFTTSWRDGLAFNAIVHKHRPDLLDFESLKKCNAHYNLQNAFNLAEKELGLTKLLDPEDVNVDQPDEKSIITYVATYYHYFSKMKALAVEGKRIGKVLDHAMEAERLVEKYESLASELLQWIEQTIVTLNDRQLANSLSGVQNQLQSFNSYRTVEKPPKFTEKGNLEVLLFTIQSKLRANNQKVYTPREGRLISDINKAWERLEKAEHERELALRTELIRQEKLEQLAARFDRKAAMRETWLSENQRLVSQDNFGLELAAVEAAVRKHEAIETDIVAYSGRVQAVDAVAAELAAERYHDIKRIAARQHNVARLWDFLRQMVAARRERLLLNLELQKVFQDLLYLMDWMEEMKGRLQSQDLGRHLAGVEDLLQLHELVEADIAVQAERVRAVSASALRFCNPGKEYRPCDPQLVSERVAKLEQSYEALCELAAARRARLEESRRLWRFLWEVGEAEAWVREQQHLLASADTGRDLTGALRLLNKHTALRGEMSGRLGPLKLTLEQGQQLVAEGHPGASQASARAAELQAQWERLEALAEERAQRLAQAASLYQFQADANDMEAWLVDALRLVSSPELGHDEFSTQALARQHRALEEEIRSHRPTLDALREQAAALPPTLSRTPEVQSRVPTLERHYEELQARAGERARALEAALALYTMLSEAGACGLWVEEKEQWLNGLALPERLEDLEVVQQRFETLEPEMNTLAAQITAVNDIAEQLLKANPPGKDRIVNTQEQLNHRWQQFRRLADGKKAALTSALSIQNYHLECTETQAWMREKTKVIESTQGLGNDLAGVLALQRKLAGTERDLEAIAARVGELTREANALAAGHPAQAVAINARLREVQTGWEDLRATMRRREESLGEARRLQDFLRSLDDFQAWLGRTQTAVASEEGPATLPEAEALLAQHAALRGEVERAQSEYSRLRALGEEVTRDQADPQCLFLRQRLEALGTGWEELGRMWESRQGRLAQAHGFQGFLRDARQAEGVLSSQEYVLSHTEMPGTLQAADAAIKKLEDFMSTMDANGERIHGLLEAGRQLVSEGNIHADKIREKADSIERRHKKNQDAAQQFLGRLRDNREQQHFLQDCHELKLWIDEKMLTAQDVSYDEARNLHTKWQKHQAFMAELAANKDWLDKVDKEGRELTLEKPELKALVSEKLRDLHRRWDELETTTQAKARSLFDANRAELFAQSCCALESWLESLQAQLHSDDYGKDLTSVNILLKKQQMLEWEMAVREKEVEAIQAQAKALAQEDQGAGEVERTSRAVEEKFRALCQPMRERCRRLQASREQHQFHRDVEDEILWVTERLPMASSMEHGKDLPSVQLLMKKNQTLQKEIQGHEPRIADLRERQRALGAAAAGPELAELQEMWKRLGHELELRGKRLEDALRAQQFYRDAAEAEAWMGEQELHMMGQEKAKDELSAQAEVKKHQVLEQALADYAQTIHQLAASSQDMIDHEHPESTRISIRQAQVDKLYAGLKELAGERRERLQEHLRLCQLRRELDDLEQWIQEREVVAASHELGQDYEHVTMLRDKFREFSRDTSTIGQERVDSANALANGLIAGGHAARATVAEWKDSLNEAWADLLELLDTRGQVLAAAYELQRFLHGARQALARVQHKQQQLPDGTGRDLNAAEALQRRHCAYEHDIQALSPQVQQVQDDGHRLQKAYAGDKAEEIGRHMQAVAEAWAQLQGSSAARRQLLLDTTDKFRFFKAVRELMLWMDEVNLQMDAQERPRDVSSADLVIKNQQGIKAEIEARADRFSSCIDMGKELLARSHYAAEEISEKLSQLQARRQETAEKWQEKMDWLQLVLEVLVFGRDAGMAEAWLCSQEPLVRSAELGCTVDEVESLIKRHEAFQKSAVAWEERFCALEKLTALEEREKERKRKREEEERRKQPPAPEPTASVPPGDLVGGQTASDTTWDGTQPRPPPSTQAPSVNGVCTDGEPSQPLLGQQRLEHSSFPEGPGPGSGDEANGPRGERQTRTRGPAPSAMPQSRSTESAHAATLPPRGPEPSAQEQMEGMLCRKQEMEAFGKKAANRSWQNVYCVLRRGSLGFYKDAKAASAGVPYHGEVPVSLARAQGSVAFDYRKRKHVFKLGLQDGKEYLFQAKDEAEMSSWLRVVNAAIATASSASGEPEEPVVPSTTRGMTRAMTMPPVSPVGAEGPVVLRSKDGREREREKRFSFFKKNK
UniProt Q9Y6M7: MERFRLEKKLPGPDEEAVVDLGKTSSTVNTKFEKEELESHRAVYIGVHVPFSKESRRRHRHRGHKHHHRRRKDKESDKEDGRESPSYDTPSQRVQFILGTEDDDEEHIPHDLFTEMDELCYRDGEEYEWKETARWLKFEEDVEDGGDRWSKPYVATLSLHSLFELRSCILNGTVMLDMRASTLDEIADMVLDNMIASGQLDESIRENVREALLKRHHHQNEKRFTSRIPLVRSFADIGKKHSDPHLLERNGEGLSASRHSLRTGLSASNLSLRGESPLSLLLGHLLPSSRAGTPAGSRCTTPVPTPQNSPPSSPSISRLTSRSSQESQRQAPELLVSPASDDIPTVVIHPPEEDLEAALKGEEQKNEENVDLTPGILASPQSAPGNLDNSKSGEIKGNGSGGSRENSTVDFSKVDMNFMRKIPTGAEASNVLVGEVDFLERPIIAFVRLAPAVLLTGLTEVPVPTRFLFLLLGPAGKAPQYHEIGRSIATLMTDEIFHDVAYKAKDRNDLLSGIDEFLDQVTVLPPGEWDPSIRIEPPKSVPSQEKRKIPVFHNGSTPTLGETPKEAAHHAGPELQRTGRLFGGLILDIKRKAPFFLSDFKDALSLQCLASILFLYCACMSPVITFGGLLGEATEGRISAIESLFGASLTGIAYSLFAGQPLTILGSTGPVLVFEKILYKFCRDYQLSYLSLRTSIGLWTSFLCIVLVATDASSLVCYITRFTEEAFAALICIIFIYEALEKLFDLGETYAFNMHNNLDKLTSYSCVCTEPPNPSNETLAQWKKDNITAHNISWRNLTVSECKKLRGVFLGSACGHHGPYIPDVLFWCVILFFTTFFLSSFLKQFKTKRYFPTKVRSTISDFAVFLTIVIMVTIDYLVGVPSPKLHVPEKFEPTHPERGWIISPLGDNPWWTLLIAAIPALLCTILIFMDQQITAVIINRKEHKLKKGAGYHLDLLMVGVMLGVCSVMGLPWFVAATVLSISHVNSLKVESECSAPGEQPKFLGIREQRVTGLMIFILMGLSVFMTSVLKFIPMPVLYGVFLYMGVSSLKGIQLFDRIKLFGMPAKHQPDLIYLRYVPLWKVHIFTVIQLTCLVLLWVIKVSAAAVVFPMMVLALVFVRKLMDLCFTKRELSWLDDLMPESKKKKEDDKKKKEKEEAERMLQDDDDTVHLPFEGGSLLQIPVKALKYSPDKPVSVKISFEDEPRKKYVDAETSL
UniProt O75494: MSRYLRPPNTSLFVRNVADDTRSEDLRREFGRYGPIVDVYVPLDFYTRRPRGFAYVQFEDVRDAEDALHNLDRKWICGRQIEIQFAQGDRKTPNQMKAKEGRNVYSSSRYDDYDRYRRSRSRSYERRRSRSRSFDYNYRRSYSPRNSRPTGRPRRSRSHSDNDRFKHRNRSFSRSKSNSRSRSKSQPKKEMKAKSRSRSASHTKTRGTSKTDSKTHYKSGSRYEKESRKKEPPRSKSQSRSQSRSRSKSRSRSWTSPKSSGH
UniProt Q6PI26: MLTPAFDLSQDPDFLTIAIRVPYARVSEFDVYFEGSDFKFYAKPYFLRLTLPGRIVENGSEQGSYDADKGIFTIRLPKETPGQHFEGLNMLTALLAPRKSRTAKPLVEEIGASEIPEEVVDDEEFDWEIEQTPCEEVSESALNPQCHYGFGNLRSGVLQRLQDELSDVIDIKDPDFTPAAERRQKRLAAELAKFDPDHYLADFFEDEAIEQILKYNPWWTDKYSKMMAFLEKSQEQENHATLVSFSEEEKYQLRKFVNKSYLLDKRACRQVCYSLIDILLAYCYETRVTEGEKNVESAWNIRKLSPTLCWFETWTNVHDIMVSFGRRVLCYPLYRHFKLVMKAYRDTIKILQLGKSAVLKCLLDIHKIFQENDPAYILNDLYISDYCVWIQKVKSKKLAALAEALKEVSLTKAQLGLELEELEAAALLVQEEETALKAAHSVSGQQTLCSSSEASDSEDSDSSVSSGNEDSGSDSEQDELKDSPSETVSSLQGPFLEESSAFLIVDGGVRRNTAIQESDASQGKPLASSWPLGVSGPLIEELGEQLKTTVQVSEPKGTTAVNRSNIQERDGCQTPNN
UniProt P55011: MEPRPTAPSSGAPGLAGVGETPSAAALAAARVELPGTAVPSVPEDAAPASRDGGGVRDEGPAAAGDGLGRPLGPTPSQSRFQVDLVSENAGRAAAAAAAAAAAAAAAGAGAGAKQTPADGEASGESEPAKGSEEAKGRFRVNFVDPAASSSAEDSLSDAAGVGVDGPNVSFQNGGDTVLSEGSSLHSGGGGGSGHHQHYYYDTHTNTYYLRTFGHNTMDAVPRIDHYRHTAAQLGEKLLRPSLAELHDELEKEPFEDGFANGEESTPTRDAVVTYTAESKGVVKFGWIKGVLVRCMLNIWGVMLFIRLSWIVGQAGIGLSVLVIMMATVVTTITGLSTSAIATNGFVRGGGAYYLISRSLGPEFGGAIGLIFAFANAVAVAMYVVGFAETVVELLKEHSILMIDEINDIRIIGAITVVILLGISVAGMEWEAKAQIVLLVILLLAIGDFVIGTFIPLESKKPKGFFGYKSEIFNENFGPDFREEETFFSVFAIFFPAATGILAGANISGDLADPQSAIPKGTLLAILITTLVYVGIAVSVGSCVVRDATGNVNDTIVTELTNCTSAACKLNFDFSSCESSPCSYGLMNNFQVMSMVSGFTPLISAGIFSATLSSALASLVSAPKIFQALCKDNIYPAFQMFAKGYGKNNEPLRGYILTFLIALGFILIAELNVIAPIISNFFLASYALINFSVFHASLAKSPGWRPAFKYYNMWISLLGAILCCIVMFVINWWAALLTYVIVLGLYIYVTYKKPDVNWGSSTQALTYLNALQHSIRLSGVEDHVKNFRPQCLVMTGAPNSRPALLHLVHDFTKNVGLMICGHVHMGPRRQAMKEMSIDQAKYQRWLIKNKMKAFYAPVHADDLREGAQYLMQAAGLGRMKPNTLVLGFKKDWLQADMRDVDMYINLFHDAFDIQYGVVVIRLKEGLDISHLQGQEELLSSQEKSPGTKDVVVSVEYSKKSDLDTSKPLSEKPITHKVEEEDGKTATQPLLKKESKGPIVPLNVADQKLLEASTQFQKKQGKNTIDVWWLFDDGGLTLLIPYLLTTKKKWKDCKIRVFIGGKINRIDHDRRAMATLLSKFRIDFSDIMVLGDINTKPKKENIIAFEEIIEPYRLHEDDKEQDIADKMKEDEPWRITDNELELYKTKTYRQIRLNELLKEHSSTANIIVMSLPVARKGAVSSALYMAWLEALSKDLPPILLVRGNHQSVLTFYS
UniProt Q15831: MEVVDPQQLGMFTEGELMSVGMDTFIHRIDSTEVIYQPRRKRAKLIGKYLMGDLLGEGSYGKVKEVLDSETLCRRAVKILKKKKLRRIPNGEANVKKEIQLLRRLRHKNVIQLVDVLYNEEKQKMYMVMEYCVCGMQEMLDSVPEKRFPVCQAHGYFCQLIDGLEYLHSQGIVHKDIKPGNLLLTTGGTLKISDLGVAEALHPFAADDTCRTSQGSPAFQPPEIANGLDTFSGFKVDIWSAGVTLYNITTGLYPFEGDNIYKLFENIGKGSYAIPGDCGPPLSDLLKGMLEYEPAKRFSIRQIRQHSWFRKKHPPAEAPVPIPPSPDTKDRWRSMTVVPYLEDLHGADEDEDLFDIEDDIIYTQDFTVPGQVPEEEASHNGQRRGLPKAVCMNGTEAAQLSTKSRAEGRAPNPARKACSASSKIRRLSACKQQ

Compound: Nc1nc2c(ncn2[C@@H]2O[C@H](COP(=O)(O)OP(=O)(O)OP(=O)(O)O)[C@@H](O)[C@H]2O)c(=O)[nH]1
Assay: dose-dependent thermal stabilisation call (2D-TPP, DLPTP, 10% FDR) (binary (1 = stabilised)); higher = stabilised by the compound
Conditions: system: Jurkat gel-filtered lysate; concentration range 1-500 µM

Target | dose-dependent thermal stabilisation call
SLC7A5 (UniProt Q01650) | inactive: 0
SRP72 (UniProt O76094) | active: 1
SPC24 (UniProt Q8NBT2) | inactive: 0
SMAD2 (UniProt Q15796) | inactive: 0
SMCHD1 (UniProt A6NHR9) | inactive: 0
STK38 (UniProt Q15208) | inactive: 0
STXBP3 (UniProt O00186) | active: 1
TAF8 (UniProt Q7Z7C8) | inactive: 0
SPAG5 (UniProt Q96R06) | active: 1
SMC3 (UniProt Q9UQE7) | inactive: 0
SMARCD1 (UniProt Q96GM5) | active: 1
SPTBN2 (UniProt O15020) | inactive: 0
SRSF3 (UniProt P84103) | active: 1
STX12 (UniProt Q86Y82) | inactive: 0
SLC4A7 (UniProt Q9Y6M7) | inactive: 0
SNX12 (UniProt Q9UMY4) | inactive: 0
SPAG9 (UniProt O60271) | inactive: 0
SRGAP3 (UniProt O43295) | inactive: 0
SUPV3L1 (UniProt Q8IYB8) | inactive: 0
SMAD3 (UniProt P84022) | active: 1
SMAP2 (UniProt Q8WU79) | inactive: 0
SRSF10 (UniProt O75494) | inactive: 0
TAF7 (UniProt Q15545) | inactive: 0
SMARCE1 (UniProt Q969G3) | inactive: 0

Target | dose-dependent thermal stabilisation call
SOX4 (UniProt Q06945) | inactive: 0
STX8 (UniProt Q9UNK0) | inactive: 0
STMN1 (UniProt P16949) | inactive: 0
STUB1 (UniProt Q9UNE7) | inactive: 0
STK35 (UniProt Q8TDR2) | active: 1
TAF6 (UniProt P49848) | inactive: 0
SMARCAL1 (UniProt Q9NZC9) | inactive: 0
SH3GLB2 (UniProt Q9NR46) | inactive: 0
SREK1 (UniProt Q8WXA9) | inactive: 0
SSRP1 (UniProt Q08945) | inactive: 0
SORBS3 (UniProt O60504) | inactive: 0
SSBP3 (UniProt Q9BWW4) | inactive: 0
SNX16 (UniProt P57768) | inactive: 0
SPN (UniProt P16150) | inactive: 0
SP3 (UniProt Q02447) | inactive: 0
SP2 (UniProt Q02086) | inactive: 0
SPDL1 (UniProt Q96EA4) | inactive: 0
SNX15 (UniProt Q9NRS6) | inactive: 0
SHPK (UniProt Q9UHJ6) | active: 1
STAG1 (UniProt Q8WVM7) | inactive: 0
SRPRA (UniProt P08240) | active: 1
SKAP1 (UniProt Q86WV1) | inactive: 0
SHQ1 (UniProt Q6PI26) | inactive: 0
STX5 (UniProt Q13190) | inactive: 0

Target | dose-dependent thermal stabilisation call
SMC1A (UniProt Q14683) | inactive: 0
SMARCA4 (UniProt P51532) | inactive: 0
TAF4 (UniProt O00268) | inactive: 0
SLC12A2 (UniProt P55011) | inactive: 0
SUGT1 (UniProt Q9Y2Z0) | inactive: 0
SRI (UniProt P30626) | inactive: 0
SND1 (UniProt Q7KZF4) | active: 1
SIK3 (UniProt Q9Y2K2) | inactive: 0
SP4 (UniProt Q02446) | inactive: 0
SMARCA5 (UniProt O60264) | inactive: 0
STX4 (UniProt Q12846) | inactive: 0
SUPT6H (UniProt Q7KZ85) | inactive: 0
SHCBP1 (UniProt Q8NEM2) | inactive: 0
STK26 (UniProt Q9P289) | inactive: 0
SNX3 (UniProt O60493) | inactive: 0
SRSF2 (UniProt Q01130) | active: 1
SLC4A2 (UniProt P04920) | inactive: 0
STK11 (UniProt Q15831) | inactive: 0
SIKE1 (UniProt Q9BRV8) | inactive: 0
SNU13 (UniProt P55769) | inactive: 0
SNRK (UniProt Q9NRH2) | inactive: 0
SPG20 (UniProt Q8N0X7) | inactive: 0
SLC9A3R1 (UniProt O14745) | inactive: 0

Already shown: entries from further up.
Target | dose-dependent thermal stabilisation call
SUPT6H (UniProt Q7KZ85) | inactive: 0
SHCBP1 (UniProt Q8NEM2) | inactive: 0
STK26 (UniProt Q9P289) | inactive: 0
